Sequences of proteins named here, by UniProt entry; tags and fusion partners are left off. A change or cut given only in a name is not applied to a line headed by its entry. Residues count along the entry.
UniProt Q9H825: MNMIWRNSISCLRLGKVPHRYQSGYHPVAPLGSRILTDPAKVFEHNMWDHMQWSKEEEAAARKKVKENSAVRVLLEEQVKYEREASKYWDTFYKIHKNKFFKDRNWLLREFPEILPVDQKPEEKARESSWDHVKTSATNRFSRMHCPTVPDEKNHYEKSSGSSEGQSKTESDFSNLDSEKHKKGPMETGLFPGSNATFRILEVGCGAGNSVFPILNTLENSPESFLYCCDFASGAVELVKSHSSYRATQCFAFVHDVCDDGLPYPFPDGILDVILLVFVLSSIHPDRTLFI
UniProt Q9NP81, residues 35-518: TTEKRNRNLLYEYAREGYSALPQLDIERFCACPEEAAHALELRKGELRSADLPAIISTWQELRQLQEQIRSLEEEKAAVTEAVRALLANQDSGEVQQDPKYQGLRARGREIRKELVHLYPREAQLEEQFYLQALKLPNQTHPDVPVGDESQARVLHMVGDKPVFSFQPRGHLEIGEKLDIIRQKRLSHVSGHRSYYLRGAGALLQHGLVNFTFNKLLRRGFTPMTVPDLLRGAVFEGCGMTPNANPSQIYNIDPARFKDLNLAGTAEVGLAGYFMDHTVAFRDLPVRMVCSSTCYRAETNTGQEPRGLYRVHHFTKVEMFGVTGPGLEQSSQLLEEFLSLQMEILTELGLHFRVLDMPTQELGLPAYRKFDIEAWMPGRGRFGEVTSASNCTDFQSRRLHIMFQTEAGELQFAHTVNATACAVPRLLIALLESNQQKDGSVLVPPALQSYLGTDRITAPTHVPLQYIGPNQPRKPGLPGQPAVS

According to publication PMC8980813:

Molecular target: METTL8 fused to the Twin-Strep tag at the C-terminus (human) (UniProt Q9H825)

## endogenous mitochondrial seryl-tRNA synthetase (SARS2) (from UniProt Q9NP81 35-518) (enzyme)
  binding: binds

These are yes or no findings as the source states them, for the method shown. In cells and extracts the contact can be indirect. Here binding means that the protein was enriched with, or labelled near, the bait; the list need not be complete.
